The values that follow come from patent US20060106064A1, “Butyrophenones and sigma-1 receptor antagonists protect against oxidative-stress” (University of North Texas Health Science Center at Fort …, priority 2004, published 2006).

By EC50 is commonly meant the concentration giving half of the maximal effect.

The test system of the assay is HT-22 cells. Put plainly: in vitro protection assay, glutamate-induced oxidative stress HT-22 cell model (Calcein AM cell survival). The note with it: Mus musculus.
[1] abbreviates: HT-22, read-out: Potency (EC50 ± SEM, nM).

Like-named read-outs stand apart in the source and are kept apart here.

For the compound `CN1CCN(C2=Nc3cc(Cl)ccc3Nc3ccccc32)CC1` [Clozapine], the EC50 under setting [1] was more than 1000 nM.

Take `O=C(CCCN1CCC(O)(c2ccc(Cl)cc2)CC1)c1ccc(F)cc1` [Haloperidol, 4-[4-(4-chlorophenyl)-4-hydroxy-1-piperidyl]-1-(4-fluorophenyl)-butan-1-one]: the EC50 was 1.2 ± 0.4 nM (HT-22, read-out: In vitro Protective Potency (EC50 ± SEM, nM)); 1.2 ± 0.4 nM (HT-22, read-out: Potency (EC50 ± SEM nM)); 1.2 ± 0.4 nM under setting [1].

Consider `Clc1ccc2c(c1)C(N1CCNCC1)=Nc1ccccc1O2` [Amoxapine], for which the EC50 under setting [1] is more than 1000 nM.

With `CSc1ccc2c(c1)N(CCC1CCCCN1C)c1ccccc1S2` (stereo not drawn) [Thioridazine], the EC50 under setting [1] was more than 1000 nM.
